In paper PMC4291083, “Ex Vivo Characterization of a Novel Iodine-123-Labelled Aminomethylchroman as a Potential Agonist Ligand for SPECT Imaging of Dopamine D2/3 Receptors” (International Journal of Molecular Imaging, 2014):
The source gives many values for each of these; only a part stands here.

Test: Biodistribution studies in rats
Type: in vivo, Wistar rats
Details: male rats
Method: [^123I]-1 (SA ≥ 37 MBq/nmol) was received after radiolabelling in an isotonic acetate (9% EtOH) buffer (pH 4.8). The solution was passed through a membrane filter (0.2 μm) and was diluted to the proper concentrations. Male Wistar rats (approximately 250 g body weight, obtained from Harlan/Charles River, Zeist, Netherlands) received an intravenous injection in the tail vein of approximately 3.7 MBq/0.4 mL buffer of [^123I]-1 under O2/CO2 anaesthesia. Distribution to the tissue was measured 15 min, 30 min, and 1, 2, 3, 4, and 24 h after the injection to determine the time course of uptake in several organs, including the brain. Four rats were killed at each time point via bleeding by heart puncture (to minimize contribution of blood activity) under O2/CO2 anaesthesia followed by cervical dislocation. Brain regions (cerebellum, frontal and prefrontal cortex, olfactory bulbs, pituitary, medulla with pons, midbrain, striatum, hypothalamus, hippocampus, and thalamus) and various peripheral tissues (heart, lung, liver, spleen, kidney, muscle, fat, and thymus) were quickly excised and weighted. The activity of [^123I] was assayed in a gamma counter, and data was corrected for decay and the amount of radioactivity was presented as percentage of the injected dose, multiplied by the body weight in kilograms, per gram tissue or blood. Selective uptake in the striatum was determined by calculating the ratio of radioactivity in the striatum in relation to that in the cerebellum, since the density of dopamine D2/3 receptor is negligible in this brain area in rats.

- 123I radioactivity, Heart (15 min after i.v. injection): 1.678 ± 1.142 %ID × kg/g
- 123I radioactivity, Heart (30 min after i.v. injection): 0.658 ± 0.141 %ID × kg/g
- 123I radioactivity, Heart (1 h after i.v. injection): 0.962 ± 1.043 %ID × kg/g
- 123I radioactivity, Heart (2 h after i.v. injection): 0.669 ± 0.348 %ID × kg/g
- 123I radioactivity, Heart (3 h after i.v. injection): 0.372 ± 0.265 %ID × kg/g
- 123I radioactivity, Heart (4 h after i.v. injection): 0.180 ± 0.044 %ID × kg/g
- 123I radioactivity, Heart (24 h after i.v. injection): 0.033 ± 0.005 %ID × kg/g
- 123I radioactivity, Liver (15 min after i.v. injection): 1.316 ± 0.773 %ID × kg/g
- 123I radioactivity, Liver (30 min after i.v. injection): 2.644 ± 0.361 %ID × kg/g
- 123I radioactivity, Liver (1 h after i.v. injection): 2.470 ± 0.449 %ID × kg/g
- 123I radioactivity, Liver (2 h after i.v. injection): 2.713 ± 0.487 %ID × kg/g
- 123I radioactivity, Liver (3 h after i.v. injection): 2.387 ± 1.400 %ID × kg/g
- 123I radioactivity, Liver (4 h after i.v. injection): 3.164 ± 0.824 %ID × kg/g
- 123I radioactivity, Liver (24 h after i.v. injection): 0.260 ± 0.064 %ID × kg/g
- 123I radioactivity, Lung (15 min after i.v. injection): 3.483 ± 3.534 %ID × kg/g
- 123I radioactivity, Lung (30 min after i.v. injection): 5.673 ± 2.526 %ID × kg/g
- 123I radioactivity, Lung (1 h after i.v. injection): 1.622 ± 0.848 %ID × kg/g
- 123I radioactivity, Lung (2 h after i.v. injection): 0.390 ± 0.302 %ID × kg/g
- 123I radioactivity, Lung (3 h after i.v. injection): 0.936 ± 0.762 %ID × kg/g
- 123I radioactivity, Lung (4 h after i.v. injection): 0.573 ± 0.307 %ID × kg/g
- 123I radioactivity, Lung (24 h after i.v. injection): 0.040 ± 0.005 %ID × kg/g
- 123I radioactivity, Muscle (1 h after i.v. injection): 0.244 ± 0.023 %ID × kg/g
- 123I radioactivity, Muscle (2 h after i.v. injection): 0.124 ± 0.028 %ID × kg/g
- 123I radioactivity, Muscle (3 h after i.v. injection): 0.119 ± 0.028 %ID × kg/g
- 123I radioactivity, Muscle (4 h after i.v. injection): 0.084 ± 0.041 %ID × kg/g
- 123I radioactivity, Muscle (24 h after i.v. injection): 0.012 ± 0.004 %ID × kg/g
- 123I radioactivity, Thymus (15 min after i.v. injection): 0.365 ± 0.507 %ID × kg/g
- 123I radioactivity, Thymus (30 min after i.v. injection): 1.776 ± 0.200 %ID × kg/g
- 123I radioactivity, Thymus (1 h after i.v. injection): 1.591 ± 0.169 %ID × kg/g
- 123I radioactivity, Thymus (2 h after i.v. injection): 1.083 ± 0.454 %ID × kg/g
- 123I radioactivity, Thymus (3 h after i.v. injection): 0.946 ± 0.150 %ID × kg/g
- 123I radioactivity, Thymus (4 h after i.v. injection): 0.815 ± 0.244 %ID × kg/g
- 123I radioactivity, Thymus (24 h after i.v. injection): 0.024 ± 0.001 %ID × kg/g
SMILES: Oc1ccc2c(c1)O[C@@H](CNCc1ccc([123I])cc1)CC2 [[^123I]-1]
